Experimental data: PubChem BioAssay AID1259308 (NCATS, 2017)
Here is an unselected part of about 59,000 reagents tested. About 1,510 of all reagents (2.6%) count as active. 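Calls use total luciferase alone and ignore viability, so some active siRNAs may act by altering cell number.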 The numbers tell different reagents against one gene apart. Not all columns of the deposit are shown. No sequences are given here.

Screen: 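Genes whose loss raises luciferase production in HEK293 cells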 (primary screen)
Cells: human HEK293 embryonic kidney cells stably expressing firefly luciferase (HEK-CMV-Luc2-Hygro)
Reagent: single siRNA against human genes, 0.8 pmol siRNA per well
Time to read-out: 72 h
Measured: 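Luciferase light (ONE-Glo) measured on one replicate plate set and viability (CellTiter-Glo) on the other, scaled to a negative control siRNA, with robust z-scores and luciferase per cell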
Direction: total luciferase, z-score and total luciferase, % of control: higher = more reporter protein produced
Hit rule: 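An siRNA counts as active if its total luciferase robust z-score exceeds 3; genes with two or more such siRNAs out of three were retested with fresh siRNAs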
Calls: active = raised luciferase; inactive = no rise

With TSPAN6 (tetraspanin 6) #1, how do the results read?
total luciferase, z-score: -0.239; total luciferase, % of control: 77.1; call: inactive

What did the screen give for TSPAN6 (tetraspanin 6) #2?
total luciferase, z-score: 1.36; total luciferase, % of control: 109; call: inactive

With TSPAN6 (tetraspanin 6) #3, what was measured?
total luciferase, z-score: 0.374; total luciferase, % of control: 89.3; call: inactive

With RHOV (ras homolog family member V) #1, how do the results read?
total luciferase, z-score: -0.623; total luciferase, % of control: 69.5; call: inactive

How did the screen score RHOV (ras homolog family member V) #2?
total luciferase, z-score: -0.661; total luciferase, % of control: 68.7; call: inactive

For RHOV (ras homolog family member V) #3, what was measured?
total luciferase, z-score: 0.206; total luciferase, % of control: 86; call: inactive

For EEF1B2P6 #1, what does the deposit list?
total luciferase, z-score: 2.23; total luciferase, % of control: 126; call: inactive

Which result is listed for EEF1B2P6 #2?
total luciferase, z-score: -0.421; total luciferase, % of control: 73.5; call: inactive

What did the screen give for EEF1B2P6 #3?
total luciferase, z-score: -0.456; total luciferase, % of control: 72.8; call: inactive

How did the screen score OLIG2 (oligodendrocyte transcription factor 2) #1?
total luciferase, z-score: -0.487; total luciferase, % of control: 72.2; call: inactive

For OLIG2 (oligodendrocyte transcription factor 2) #2, what does the deposit list?
total luciferase, z-score: 0.103; total luciferase, % of control: 83.9; call: inactive

With OLIG2 (oligodendrocyte transcription factor 2) #3, what was measured?
total luciferase, z-score: -0.429; total luciferase, % of control: 73.4; call: inactive

Limited to “total luciferase, % of control”, for 2 of the entries above:
EEF1B2P6 #1 = 126
EEF1B2P6 #2 = 73.5
